Reference: paper PMC4582193

Target: T1, Flag-tagged kinase-dead mutant Nek2A (Nek2A K37R) (human (cloned from HEK293T)) (UniProt P51955)
T1 sequence: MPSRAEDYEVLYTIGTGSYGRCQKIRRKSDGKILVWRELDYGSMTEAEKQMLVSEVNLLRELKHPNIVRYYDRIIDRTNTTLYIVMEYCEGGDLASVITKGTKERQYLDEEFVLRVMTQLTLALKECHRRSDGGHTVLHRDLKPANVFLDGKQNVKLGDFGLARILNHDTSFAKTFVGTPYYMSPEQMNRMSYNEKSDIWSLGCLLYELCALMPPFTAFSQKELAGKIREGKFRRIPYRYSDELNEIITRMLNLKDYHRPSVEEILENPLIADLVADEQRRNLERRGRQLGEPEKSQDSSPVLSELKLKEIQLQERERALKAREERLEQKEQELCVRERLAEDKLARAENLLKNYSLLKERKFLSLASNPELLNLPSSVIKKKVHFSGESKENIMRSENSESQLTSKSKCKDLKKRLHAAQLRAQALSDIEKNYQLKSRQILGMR
Assay: affinity purification with mass spectrometry; Flag-tagged kinase-dead Nek2A expressed in HEK293T cells, affinity purified with M2 agarose, SDS-PAGE, silver staining, bands around 85 kDa identified by mass spectrometry

- binding: binds
B1: centrosomal protein 85 kDa (Cep85), endogenous in HEK293T (protein, UniProt Q6P2H3-1 1-762)
chain: MAMQEKYPTEGISHVTSPSSDVIQKGSSLGTEWQTPVISEPFRSRFSRCSSVADSGDTAIGTSCSDIAEDFCSSSGSPPFQPIKSHVTIPTAHVMPSTLGTSPAKPNSTPVGPSSSKLPLSGLAESVGMTRNGDLGAMKHSPGLSRDLMYFSGATGENGIEQSWFPAVGHERQEEARKFDIPSMESTLNQSAMMETLYSDPHHRVRFHNPRTSTSKELYRVLPEAKKAPGSGAVFERNGPHSNSSGVLPLGLQPAPGLSKPLPSQVWQPSPDTWHPREQSCELSTCRQQLELIRLQMEQMQLQNGAICHHPAAFGPSLPILEPAQWISILNSNEHLLKEKELLIDKQRKHISQLEQKVRESELQVHSALLGRPAPFGDVCLLRLQELQRENTFLRAQFAQKTEALSREKIDLEKKLSASEVEVQLIRESLKVALQKHSEEVKKQEERVKGRDKHINNLKKKCQKESEQNREKQQRIETLERYLADLPTLEDHQKQSQQLKDSELKSTELQEKVTELESLLEETQAICREKEIQLESLRQREAEFSSAGHSLQDKQSVEETSGEGPEVEMESWQKRYDSLQKIVEKQQQKMDQLRSQVQSLEQEVAQEEGTSQALREEAQRRDSALQQLRTAVKELSVQNQDLIEKNLTLQEHLRQAQPGSPPSPDTAQLALELHQELASCLQDLQAVCSIVTQRAQGHDPNLSLLLGIHSAQHPETQLDLQKPDVIKRKLEEVQQLRRDIEDLRTTMSDRYAQDMGENCVTQ

No constants are given. Whether binding was seen depends on the method and setting. Binding seen in cells or lysates may run through a third protein. Here binding means that the protein was enriched with, or labelled near, the bait; the list need not be complete. Where a sequence is shown, tags or fusion partners need not be part of it.
